In patent US11344574B2, “Fluoro substituted porphyrin compounds, pharmaceutical compositions comprising the same, and methods of preparing and using the same” (Duke University, priority 2017, dated 2022):
At least one structure is not confirmed: it was looked up by name or label, or the drawing left a doubt.

Test system: 4T1 breast tumor
Assay: Mouse flank 4T1 tumor radio- and chemosensitization study, MnP 0.2 mg/kg
Type: in vivo
Conditions: breast cancer, to MnTF3Pen-2-PyP^5+ and radiation

O=C1O[C@H]([C@@H](O)CO)C(O)=C1O [ascorbate, reference compound]
tumor sensitization: powerful tumor sensitizer
